# The other results are listed elsewhere or left out. Further columns of the screen follow, without active or inactive calls. The list favours compounds with an active or inconclusive main result. The note in brackets gives the kind of curve behind each potency; many fits are weak.
# Assay: qHTS Assay for Lipid Storage Modulators in Drosophila S3 Cells;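 for cell number change: cells counted by Cell Tracker Red CMTPX staining in the red channel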
# Details: BODIPY lipid droplet fluorescence, 18-24 h; for cell number change: measured here: cell count max response, cells fed with added oleic acid
# How it was run: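 Laser-scanning cytometry quantifies lipid droplet accumulation (500–530 nm total intensity; droplet/cell object ratio) in oleic acid-fed (400 uM added) Drosophila S3 cells treated with a concentration series. 20 uM Triacsin C defined 100% inhibition.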
# [1] = measured here: cell number channel AC50, cells fed with added oleic acid
# [2] = measured here: lipid fluorescence (Fed channel) AC50, cells fed with added oleic acid
SMILES,cell number change,AC50 [1],AC50 [2]
CC(=O)c1cccc(NC(=O)N2CCCC2C(=O)NCCC(C)C)c1 (stereo not drawn),-0.0696%,–,–
CCOC(=O)N1CCC(n2c(SCC(=O)NCCC3=CCCCC3)nc3ccccc3c2=O)CC1,-36%,"10.3 µM [falling, single point]",–
CCC(C)(C)NC(=O)C(C(C)C)N(CC1CCCO1)C(=O)CNS(=O)(=O)c1ccccc1 (stereo not drawn),1.28%,"0.411 µM [falling, full curve]",–
CCOc1ccc(CN(C)CC(=O)NCc2ccc(F)cc2)cc1,14.1%,–,"2.31 µM [rising, full curve, poor fit]"
Cc1ccc2nc(SCC(=O)Nc3ccc4c(c3)OCO4)nc(=O)n2c1,35%,"1.46 µM [rising, full curve]",–
Nc1nc(SCC(=O)Nc2ncc(C(F)(F)F)cc2Cl)n[nH]1,-41.3%,–,–
Cc1nnc2ccc(N3CCN(c4ccccn4)CC3)nn12,-32.6%,"32.6 µM [falling, single point]","29.1 µM [falling, partial curve, poor fit]"
C/C(=C\C(=O)c1ccc(C)cc1)Nc1cccc(O)c1,-36.5%,"32.6 µM [falling, single point]","13 µM [falling, partial curve, poor fit]"
COc1ccc(CCNS(=O)(=O)CCNC(=O)c2ccc3c(c2)OCO3)cc1OC,-17.8%,"0.146 µM [falling, full curve, poor fit]","0.146 µM [falling, full curve, poor fit]"
COc1ccc(-c2nnc(COc3ccc4ccccc4c3)o2)cc1OC,34.9%,"2.31 µM [rising, partial curve]","6.51 µM [falling, partial curve, poor fit]"
O=C(COC(=O)COc1ccc(Cl)cc1)Nc1ccc(N2CCOCC2)cc1,–,"6.51 µM [rising, single point]",–
CCCC[C@]12Cc3cc(C#N)ccc3C(O1)c1c(cc(C)n(-c3ccccc3)c1=O)O2,0.581%,–,"1.19 µM [rising, partial curve]"
Cc1oc2cc(O)ccc2c(=O)c1-c1ccccc1,24.5%,–,–
COc1ccc(C(=O)N/N=C/c2cc(Br)ccc2O)cc1OC,12.4%,–,–
CC(=O)Nc1ccc(C(=O)OCC(=O)c2ccc(S(=O)(=O)N3CCCCC3)cc2)cc1,-22.6%,–,–
CN(C)S(=O)(=O)c1cccc(NC(=O)COC(=O)c2cn(-c3ccccc3)nc2-c2ccccc2)c1,-28.6%,"0.82 µM [falling, full curve, poor fit]","32.6 µM [falling, partial curve, poor fit]"
Clc1ccc(Cn2nnc(-c3ccc(CN4CCOCC4)cc3)n2)cc1,-10.6%,–,–
Cc1ccc(CN(C)C(=O)CN2C(=O)NC(c3ccccc3)(c3ccccc3)C2=O)c(C)c1,15.8%,–,–
COc1ccc(CCNS(=O)(=O)c2cc3c4c(c2)CCN4C(=O)CC3)cc1,–,"0.231 µM [rising, full curve, poor fit]",–

# A portion from the list above:
SMILES,cell number change,AC50 [1],AC50 [2]
Clc1ccc(Cn2nnc(-c3ccc(CN4CCOCC4)cc3)n2)cc1,-10.6%,–,–
Cc1ccc(CN(C)C(=O)CN2C(=O)NC(c3ccccc3)(c3ccccc3)C2=O)c(C)c1,15.8%,–,–

# Remaining list, next part:

SMILES,cell number change,AC50 [1],AC50 [2]
CCn1c(COc2ccccc2OC)nc2ccccc21,0.992%,–,"1.03 µM [rising, full curve, poor fit]"
c1csc(-c2nnc(NC3CCCCC3)c3ccccc23)c1,-20.1%,–,"29.1 µM [falling, single point]"
COc1cccc(OCc2ccc(C(=O)NCC3CCCO3)cc2)c1 (stereo not drawn),12.5%,–,"14.6 µM [rising, single point]"
CCOC(=O)c1ccccc1NC(=O)COC(=O)C1=COCCO1,–,"1.84 µM [rising, partial curve, poor fit]",–
Cc1cccc(C(=O)N(NC(=O)Oc2ccccc2)C(C)(C)C)c1,-27.9%,–,"29.1 µM [falling, single point]"
NCCCC(=O)O,-3.46%,–,"0.103 µM [falling, full curve, poor fit]"
c1cncc(-c2nc(NCc3ccco3)c3ccccc3n2)c1,–,–,"0.82 µM [rising, single point]"
Cc1ncc(CC(=O)n2cc(C(=O)c3cc(Cl)ccc3O)cn2)s1,32%,"29.1 µM [rising, single point]","4.11 µM [rising, single point]"
N#Cc1c(-n2cccc2)cccc1-n1cccc1,-15.6%,–,"3.26 µM [falling, single point]"
O=C(Nc1ccc(Cl)cc1F)c1cc(S(=O)(=O)N2CCCCC2)ccc1F,38.1%,"13 µM [rising, single point]",–
COc1ccccc1C(=O)OCCNC(=O)Cn1cnc2c1c(=O)n(C)c(=O)n2C,96.7%,"0.58 µM [rising, full curve]","1.64 µM [rising, full curve]"
Cc1cc2cc(C(c3nnnn3Cc3ccco3)N3CCCCC3)c(=O)[nH]c2cc1C (stereo not drawn),7.32%,"0.731 µM [rising, single point]",–
CCOC(=O)CC1C(=O)NCCN1S(=O)(=O)c1ccc(F)cc1 (stereo not drawn),125%,"32.6 µM [rising, partial curve, poor fit]","0.00731 µM [falling, full curve, poor fit]"
CCOC(=O)c1cnn(CCOC(=O)c2ccc(OC)cc2)c1NC(=O)c1ccc(OC)cc1,1.71%,–,"2.31 µM [rising, partial curve]"
C/C(CC(=O)NCc1ccc(Cl)cc1)=N\NC(=O)COc1ccc(C)cc1Br,19.2%,"2.06 µM [rising, single point]","6.51 µM [falling, single point]"
CC(=O)Nc1ccc(S(=O)(=O)NC(CC(=O)NCCC2=CCCCC2)C(C)C)cc1 (stereo not drawn),23.3%,–,"29.1 µM [rising, single point]"
COc1ccc(OC)c(CC(NC(C)=O)C(=O)NC2CCN(C(=O)c3cccc(C)c3)CC2)c1 (stereo not drawn),8.06%,–,–
Cc1c(C)n2c(SCC(=O)N3CC(C)OC(C)C3)nnc2[nH]c1=O (stereo not drawn),-29.9%,–,"16.4 µM [falling, single point]"
COc1cccc(C(=O)O/N=C/c2ccc(Sc3ccc(C)cc3)nc2)c1,14.5%,–,"0.58 µM [falling, single point]"

# Source: PubChem BioAssay AID2685 (National Center for Advancing Translational Sciences (NCATS), 2010)
